# From PubChem BioAssay AID1487 (National Center for Advancing Translational Sciences (NCATS), 2009)
# “And” between values parts separate entries of the source, which are not always exact repeats. Identical values can stand only once. The list shows a part of the results. These are further read-outs of the screen, such as a control signal, another cell line or another target. No call is given for them. The list favours compounds with an active or inconclusive main result. Words in brackets tell the shape of the fitted curve; partial curves, single points and poor fits give uncertain potencies.
# Assay: qHTS Assay for Modulators of Lamin A Splicing
# Settings: HeLa LMNA splicing GFP/RFP minigene ratio, 48 h
# Outline: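 S3 HeLa cells stably expressing lamin A-EGFP splicing minigene plus DsRed2, 600 cells/well, 48 h compound exposure at 37C. Laser-scanning cytometry; analysed as GFP (500-530 nm)/RFP (575-640 nm) total intensity ratio; 0.5% DMSO vehicle.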
# [1] = measured here: GFP splicing reporter channel
# [2] = measured here: RFP viability control channel
Structure (SMILES),AC50 [1],AC50 [2]
Cc1ccccc1NC(=O)CCn1cnc2onc(-c3ccc(F)cc3)c2c1=O,"1.12 µM [falling, partial curve]","0.02 µM [falling, full curve]"
Cc1ccc(S(=O)(=O)/N=C2\C(=O)c3ccccc3C([O-])=C2n2cc[n+](CCC(C)C)c2)cc1,"11.2 µM [falling, partial curve]","12.6 µM [falling, partial curve]"
O=c1ccc2c(o1)/C(=C/C=C(Cl)Cl)CCC2,–,"15.8 µM [falling, partial curve, poor fit]"
CCOc1ccc(NC(=O)CCn2cnc3onc(-c4ccc(F)cc4)c3c2=O)cc1,"35.5 µM [falling, single point]","20 µM [falling, partial curve]"
COc1cc(OC)cc(C(=O)NC(=S)Nc2ccc(N3CCCC3)cc2)c1,–,"0.891 µM [rising, full curve, poor fit]"
COc1ccc(C2Nc3ccccc3C(=O)N2c2ccccc2)cc1Cn1cc([N+](=O)[O-])cn1 (stereo unspecified),–,"31.6 µM [falling, single point]"
COc1ccc2[nH]cc(CCNc3cc(-c4ccccc4C)ncn3)c2c1,"11.2 µM [falling, partial curve, poor fit]",–
COc1ccccc1N1CCN(C(=O)c2cc3c(=O)n(Cc4ccco4)ccc3nc2C)CC1,–,"0.0794 µM [falling, partial curve, poor fit]"
Cc1ccc(NS(=O)(=O)c2c(C(=O)N3CCC(C)CC3)c(C)n(C)c2C)cc1Cl,–,"0.0794 µM [rising, full curve, poor fit]"
COCCNC(=S)N(Cc1cc2cc(C)ccc2n2nnnc12)C1CCCC1,"2.51 µM [falling, single point]","0.126 µM [falling, single point]"
Cc1ccc(S(=O)(=O)NNC2CC(=O)N(c3ccc(Br)cc3)C2=O)cc1 (stereo unspecified),"0.2 µM [falling, full curve, poor fit]",–
O=C1OCCN1C(=O)[C@H]1[C@H](c2ccc(F)cc2)C(c2ccc(F)cc2)=NN1c1ccccc1,–,"10 µM [rising, partial curve]"
CCOC(=O)Cn1c(=O)c2c(nc(N3CCCCC3)n2C)n(C)c1=O,–,"15.8 µM [rising, partial curve]"
Cc1nc2ccc(NC(=O)c3cccc(S(=O)(=O)N(C)c4ccccc4)c3)cc2s1,–,"12.6 µM [rising, partial curve]"
Cc1ccc(N(CC(O)CN2CCOCC2)S(=O)(=O)c2ccc3ccccc3c2)cc1 (stereo unspecified),"3.16 µM [falling, partial curve]","3.55 µM [falling, partial curve]"
CC1CCN(CCCNC(=O)c2cc(Sc3ccc(F)cc3)nc3ccccc23)CC1,"0.002 µM [falling, full curve, poor fit]","0.00398 µM [falling, full curve, poor fit]"
COc1ccccc1N(C)S(=O)(=O)c1ccc(C(=O)OCC(=O)N(C(C)C)C(C)C)cc1,"14.1 µM [rising, partial curve, poor fit]",–
CCc1ccc2c(c1)N(C[C@H](C)CN(C)C)c1ccccc1S2,"35.5 µM [falling, single point]",–
CCc1c(C)sc(NC(=O)C2CC2c2ccccc2)c1C(N)=O (stereo unspecified),"7.08 µM [falling, partial curve]","22.4 µM [falling, partial curve, poor fit]"
Nc1cccc(-c2cn3ccsc3n2)c1,"1.41 µM [falling, full curve]","0.891 µM [falling, full curve, poor fit]"
Cc1cc(Br)c(NC(=O)CN(C)CCOc2ccccc2)c(Br)c1,–,"1.12 µM [rising, full curve, poor fit]"
COc1cccc2c(=O)cc(C)n(CC(=O)Nc3cccc(C)c3)c12,–,"10 µM [rising, partial curve]"
CC(=O)NC(C)C(=O)OCC(=O)c1ccc(-c2ccccc2)cc1 (stereo unspecified),–,"17.8 µM [rising, partial curve]"
C=CCn1c(SCC(=O)c2cccs2)nc2sc(C)c(C)c2c1=O,–,"35.5 µM [rising, single point]"
CC(C)(C)n1nnnc1C(c1ccc(C(F)(F)F)cc1)N(Cc1ccc(F)cc1)Cc1ccco1 (stereo unspecified),–,"31.6 µM [rising, single point]"
COc1cc(OC)c(N(C)C(=O)Cn2ncc3c([nH]c4ccccc43)c2=O)cc1Cl,"35.5 µM [falling, partial curve]",–

Structure (SMILES),AC50 [1],AC50 [2]
CCOC(=O)C1(CCCCCCOc2ccc(Cl)cc2)CO1 (stereo unspecified),"11.2 µM [falling, single point]","8.91 µM [falling, partial curve, poor fit]"
Cc1onc(-c2c(F)cccc2Cl)c1C(=O)N[C@@H]1C(=O)N2[C@H]1SC(C)(C)[C@H]2C(=O)O,"0.02 µM [falling, full curve]",–
CC(=O)N(C)c1ccc(OCC(O)Cn2c3ccc(Cl)cc3c3cc(Cl)ccc32)cc1 (stereo unspecified),"2.82 µM [falling, single point]","2.82 µM [falling, single point]"
CCC(C(=O)OCC(=O)Nc1cccc(C(C)=O)c1)c1ccccc1 (stereo unspecified),–,"12.6 µM [rising, partial curve, poor fit]"
COc1ccc(-n2nnc3c(SCC(=O)NCc4ccco4)ncnc32)cc1,–,"14.1 µM [falling, single point]"
Cc1n[nH]c(C)c1CCOc1ccc(C(C)C)cc1,"0.631 µM [rising, full curve]","11.2 µM [rising, partial curve]"
O=C(/C=C\c1ccccc1)Oc1cccc2cccnc12,–,"31.6 µM [falling, single point]"
Nc1nc2ccc(OC(F)(F)F)cc2s1,"891 nM [falling, partial curve] and 17.8 µM [rising, single point] and 7.08 µM [falling, full curve, poor fit]","12.6 µM [falling, partial curve] [middle of 4 runs]"
O=C(CC1C(=O)NCCN1Cc1ccc(F)c(F)c1)NCCn1cccn1 (stereo unspecified),–,"22.4 µM [falling, partial curve, poor fit]"
O=C(C1CCCN(S(=O)(=O)Cc2ccccc2)C1)N1CCc2ccccc21 (stereo unspecified),"35.5 µM [rising, single point]","35.5 µM [rising, single point]"
Cc1csc2nc(-c3cccc(NC(=O)c4ccccc4Cl)c3)cn12,"35.5 µM [falling, single point]",–
CCC(=O)N1CCN(c2nc(-c3ccc(Cl)cc3)cs2)CC1,"35.5 µM [rising, single point]","35.5 µM [rising, single point]"
Cc1ccc(O)c(C(=O)c2cnc3onc(-c4ccc(F)cc4)c3c2)c1,"3.16 µM [rising, full curve]","11.2 µM [rising, partial curve]"
Cn1cc(C(=O)N/N=C/C(Br)=C\c2ccccc2)ccc1=O,"25.1 µM [falling, single point]","35.5 µM [falling, single point]"
O=C(NC1CCCCCC1)C1CCN(C(=O)N2CCOc3ccccc32)CC1,–,"0.794 µM [falling, partial curve]"
COc1ccc(C(=O)NCC(C)(C)SCc2c(C)cc(C)cc2C)cc1,"12.6 µM [falling, single point]","11.2 µM [falling, single point]"
Cc1ccc(C(c2sc3nc(C)nn3c2O)N2CCN(c3ccc(F)cc3)CC2)cc1 (stereo unspecified),–,"35.5 µM [rising, single point]"
CC(C)CN1CCN(Cc2ccc(C#CC(C)(C)O)cc2)CC1CCO (stereo unspecified),"35.5 µM [falling, single point]",–
c1csc(CNc2ccnc(-c3ccc4c(c3)OCO4)n2)c1,–,"0.316 µM [falling, full curve, poor fit]"
CC(C)(C)c1ccc(-c2nc(C#N)c(NCc3cccnc3)o2)cc1,"35.5 µM [rising, single point]","15.8 µM [rising, single point]"
N#Cc1c(NC(=O)c2cnccn2)sc2c1CCCC2,"28.2 µM [rising, single point]","22.4 µM [rising, single point]"
CCCc1nc([N+](=O)[O-])c(S(=O)(=O)c2ccccc2)n1CC(C)C,"3.55 µM [rising, single point]","12.6 µM [rising, partial curve]"
CCc1nnc(NC(=O)c2cc(S(=O)(=O)N3CCN(c4ccccc4)CC3)ccc2Cl)s1,"14.1 µM [rising, single point]","15.8 µM [rising, single point]"
O=C(CS(=O)(=O)c1ccccc1)Nc1ccc(Br)cn1,"3.55 µM [falling, partial curve]","5.01 µM [falling, partial curve, poor fit]"
COc1ccc(C(=O)/C(C#N)=N/Nc2ccccc2[N+](=O)[O-])cc1,"2 µM [rising, full curve, poor fit]","2.51 µM [rising, full curve]"
COc1cc(S(=O)(=O)N2CCN(c3ccc(F)cc3)CC2)ccc1Cl,"12.6 µM [rising, single point]","28.2 µM [rising, single point]"
